{"source": "PubChem BioAssay AID192", "about": "(DTP/NCI, 2004)", "tested_on": "BDF1 mice, B16 melanoma ip, median survival T/C", "test": "NCI In Vivo Anticancer Drug Screen. Data for tumor model B16 Melanoma (intraperitoneal) in B6D2F1 (BDF1) mice", "conditions": "T/C endpoint: median survival time, higher T/C = longer survival", "outline": "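Compounds were tested in mice carrying transplantable tumors. Survival or tumor size was recorded, and each value is the treated-group measurement (T) divided by that of the vehicle-treated control group (C).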", "key": {"[1]": {"conditions": "dose: 0.02 mg/kg/injection, schedule: Q01DX009 (ip), vehicle: saline"}, "[2]": {"conditions": "dose: 0.1 mg/kg/injection, schedule: Q01DX009 (ip), vehicle: saline"}}, "note": "The list does not hold the whole screen: it gathers tests that were run many times, whatever their T/C, doses with no T/C, and many T/C values between a quarter and a half above the control. Other doses and runs of a compound stand elsewhere. T/C: endpoint of the treated group in % of that of the vehicle group. Some entries give survivors of the animals treated and no T/C: the source holds a T/C of zero for them, seemingly a mark for toxic or unscored doses. Some survivor counts are full or nearly so, which does not show that the dose was tolerated: survival well below the control is almost never listed, so the zero probably covers shortened survival too. Counts of survivors are from the toxicity check (mostly the fifth day) where no day follows; animals may have died later. Schedules are NCI's codes, read here as Q, the interval in days (D) or hours (H), X, the number of doses. Some entries hold several experiments; the values are given in rising order. Brackets with × say how often a value occurs here. For survival time, the PubChem record calls one and a half times the control and up active, and a quarter to a half above the control has no call in these data; cut-offs in other NCI protocols can differ. Some T/C values are followed by the survivors on the day toxicity was checked, most often the fifth; without a count, all were alive then. Numbered stars: 1 amine (or outer) side, 2 acyl side, 3 side chain; on linkers, the order of the positions; unused ones are H or OH. Bridge positions count the residues as written; N and C are the ends. Square brackets hold non-standard residues; d marks the D form. Peptide text beside a SMILES is read from it. I, II: the chains in the order shown. Actinocin(9to1) = Cc1c2oc3c(C)ccc(C(=O)[*:1])c3nc-2c(C(=O)[*:2])c(N)c1=O; aThr = C[C@H](O)[C@H](N)C(=O)O; NMeV = CN[C@H](C(=O)O)C(C)C; Sar = CNCC(=O)O"}
{"smiles": "Cc1c2oc3c(C)ccc(C(=O)N[C@@H]4C(=O)N[C@H](C(C)C)C(=O)N5CCC[C@H]5C(=O)N(C)CC(=O)N(C)[C@@H](C(C)C)C(=O)O[C@H]4C)c3nc-2c(C(=O)N[C@@H]2C(=O)N[C@H](C(C)C)C(=O)N3CCC[C@H]3C(=O)N(C)CC(=O)N(C)[C@@H](C(C)C)C(=O)O[C@H]2C)c(N)c1=O", "note": "(I: [aThr][dV]P[Sar][NMeV] / II: [aThr][dV]P[Sar][NMeV]; ester I:1-I:C, II:1-II:C; linker I:N-II:N via Actinocin(9to1))", "values": [{"measurement": "T/C", "setting": "dose: 0.01 mg/kg/injection, schedule: Q01DX009 (ip), vehicle: saline, evaluated on day 45", "result": "112, 126, 145, 148 % of control"}, {"measurement": "T/C", "setting": "dose: 0.01 mg/kg/injection, schedule: Q01DX009 (ip), vehicle: saline, evaluated on day 60", "result": "132 % of control"}, {"measurement": "survivor count", "setting": "dose: 0.01 mg/kg/injection, schedule: Q01DX009 (ip), vehicle: saline", "result": "0 of 6 and 6 of 6"}, {"measurement": "T/C", "setting": "[1]", "result": "128 % of control [5 of 6 alive]"}, {"measurement": "survivor count", "setting": "[1]", "result": "0 of 6 and 6 of 6"}, {"measurement": "T/C", "setting": "dose: 0.03 mg/kg/injection, schedule: Q01DX009 (ip), vehicle: saline, evaluated on day 5", "result": "159 % of control"}, {"measurement": "T/C", "setting": "dose: 0.03 mg/kg/injection, schedule: Q01DX009 (ip), vehicle: saline, evaluated on day 45", "result": "107, 121, 158, 176 % of control"}, {"measurement": "T/C", "setting": "dose: 0.05 mg/kg/injection, schedule: Q01DX009 (ip), vehicle: saline, evaluated on day 5", "result": "177 % of control"}, {"measurement": "T/C", "setting": "dose: 0.05 mg/kg/injection, schedule: Q01DX009 (ip), vehicle: saline, evaluated on day 45", "result": "104, 125, 138, 185 % of control"}, {"measurement": "T/C", "setting": "dose: 0.05 mg/kg/injection, schedule: Q01DX009 (ip), vehicle: saline, evaluated on day 60", "result": "156 % of control"}, {"measurement": "survivor count", "setting": "dose: 0.05 mg/kg/injection, schedule: Q01DX009 (ip), vehicle: saline", "result": "0 of 6 and 6 of 6"}, {"measurement": "T/C", "setting": "[2]", "result": "112 % of control"}, {"measurement": "survivor count", "setting": "[2]", "result": "0 of 6 and 6 of 6 (2×)"}, {"measurement": "survivor count", "setting": "dose: 0.1 mg/kg/injection, schedule: Q01DX009 (ip), vehicle: water", "result": "10 of 10"}, {"measurement": "T/C", "setting": "dose: 0.1 mg/kg/injection, schedule: Q04DX003 (ip), vehicle: saline, evaluated on day 5", "result": "143 % of control"}, {"measurement": "T/C", "setting": "dose: 0.1 mg/kg/injection, schedule: Q04DX003 (ip), vehicle: saline, evaluated on day 10", "result": "135 % of control"}, {"measurement": "T/C", "setting": "dose: 0.13 mg/kg/injection, schedule: Q01DX001 (ip), vehicle: saline", "result": "125 % of control"}, {"measurement": "T/C", "setting": "dose: 0.2 mg/kg/injection, schedule: Q01DX001 (ip), vehicle: water", "result": "133 % of control"}, {"measurement": "survivor count", "setting": "dose: 0.2 mg/kg/injection, schedule: Q01DX009 (ip), vehicle: saline", "result": "5 of 6"}, {"measurement": "survivor count", "setting": "dose: 0.2 mg/kg/injection, schedule: Q01DX009 (ip), vehicle: water", "result": "10 of 10"}, {"measurement": "T/C", "setting": "dose: 0.2 mg/kg/injection, schedule: Q04DX003 (ip), vehicle: saline", "result": "130 % of control"}, {"measurement": "survivor count", "setting": "dose: 0.23 mg/kg/injection, schedule: Q01DX009 (ip), vehicle: saline + alcohol", "result": "10 of 10"}, {"measurement": "T/C", "setting": "dose: 0.25 mg/kg/injection, schedule: Q01DX001 (ip), vehicle: saline", "result": "126 % of control"}, {"measurement": "T/C", "setting": "dose: 0.4 mg/kg/injection, schedule: Q01DX001 (ip), vehicle: water", "result": "125 % of control"}, {"measurement": "survivor count", "setting": "dose: 0.4 mg/kg/injection, schedule: Q01DX009 (ip), vehicle: saline", "result": "0 of 6"}, {"measurement": "survivor count", "setting": "dose: 0.45 mg/kg/injection, schedule: Q01DX009 (ip), vehicle: saline + alcohol", "result": "0 of 10"}, {"measurement": "T/C", "setting": "dose: 0.5 mg/kg/injection, schedule: Q01DX001 (ip), vehicle: saline", "result": "131 % of control"}, {"measurement": "survivor count", "setting": "dose: 0.8 mg/kg/injection, schedule: Q01DX001 (ip), vehicle: water", "result": "7 of 10"}, {"measurement": "survivor count", "setting": "dose: 0.9 mg/kg/injection, schedule: Q01DX009 (ip), vehicle: saline + alcohol", "result": "0 of 10"}, {"measurement": "survivor count", "setting": "dose: 1.6 mg/kg/injection, schedule: Q01DX001 (ip), vehicle: water", "result": "0 of 10"}, {"measurement": "survivor count", "setting": "dose: 1.8 mg/kg/injection, schedule: Q01DX009 (ip), vehicle: saline + alcohol", "result": "0 of 10"}, {"measurement": "T/C", "setting": "dose: 1.0 micrograms/kg/injection, schedule: Q01DX009 (ip), vehicle: saline", "result": "130 % of control"}, {"measurement": "T/C", "setting": "dose: 6.25 micrograms/kg/injection, schedule: Q01DX009 (ip), vehicle: saline", "result": "131 % of control"}, {"measurement": "T/C", "setting": "dose: 7.8 micrograms/kg/injection, schedule: Q01DX009 (ip), vehicle: saline + alcohol", "result": "139 % of control"}, {"measurement": "T/C", "setting": "dose: 8.0 micrograms/kg/injection, schedule: Q01DX009 (ip), vehicle: saline", "result": "142 % of control"}, {"measurement": "T/C", "setting": "dose: 8.0 micrograms/kg/injection, schedule: Q01DX017 (ip), vehicle: saline", "result": "142 % of control"}, {"measurement": "T/C", "setting": "dose: 12.5 micrograms/kg/injection, schedule: Q01DX009 (ip), vehicle: saline, evaluated on day 45", "result": "129 % of control"}, {"measurement": "T/C", "setting": "dose: 12.5 micrograms/kg/injection, schedule: Q01DX009 (ip), vehicle: saline, evaluated on day 60", "result": "109, 123, 123 [5 of 6 alive], 125, 127, 130, 141, 146 [9 of 10 alive], 150, 155 % of control"}, {"measurement": "survivor count", "setting": "dose: 12.5 micrograms/kg/injection, schedule: Q01DX009 (ip), vehicle: saline", "result": "6 of 6"}, {"measurement": "T/C", "setting": "dose: 12.5 micrograms/kg/injection, schedule: Q01DX009 (ip), vehicle: water", "result": "132 and 139 % of control"}, {"measurement": "T/C", "setting": "dose: 13.0 micrograms/kg/injection, schedule: Q01DX009 (ip), vehicle: saline + alcohol", "result": "140 % of control"}, {"measurement": "T/C", "setting": "dose: 13.0 micrograms/kg/injection, schedule: Q01DX009 (ip), vehicle: saline, evaluated on day 45", "result": "114 % of control"}, {"measurement": "T/C", "setting": "dose: 13.0 micrograms/kg/injection, schedule: Q01DX009 (ip), vehicle: saline, evaluated on day 60", "result": "106, 109, 111, 113 (2×), 115, 119, 121, 125 [5 of 6 alive], 136, 140, 141, 157, 165, 172, 187, 200 % of control"}, {"measurement": "survivor count", "setting": "dose: 13.0 micrograms/kg/injection, schedule: Q01DX009 (ip), vehicle: saline", "result": "6 of 6"}, {"measurement": "T/C", "setting": "dose: 18.0 micrograms/kg/injection, schedule: Q01DX009 (ip), vehicle: saline", "result": "140 % of control"}, {"measurement": "T/C", "setting": "dose: 21.6 micrograms/kg/injection, schedule: Q01DX009 (ip), vehicle: saline + alcohol", "result": "131 % of control"}, {"measurement": "T/C", "setting": "dose: 25.0 micrograms/kg/injection, schedule: Q01DX009 (ip), vehicle: saline, evaluated on day 45", "result": "111 and 141 % of control"}, {"measurement": "T/C", "setting": "dose: 25.0 micrograms/kg/injection, schedule: Q01DX009 (ip), vehicle: saline, evaluated on day 60", "result": "94, 100, 106, 107, 111, 115, 116 [5 of 6 alive], 118, 120, 122, 125, 126, 130, 131, 131 [8 of 10 alive], 141 (2×), 142, 147 (2×), 151, 163, 164, 170, 175, 190, 200, 203, 231 % of control"}, {"measurement": "survivor count", "setting": "dose: 25.0 micrograms/kg/injection, schedule: Q01DX009 (ip), vehicle: saline", "result": "5 of 6 and 6 of 6"}, {"measurement": "T/C", "setting": "dose: 25.0 micrograms/kg/injection, schedule: Q01DX009 (ip), vehicle: water, evaluated on day 45", "result": "144 and 149 % of control"}, {"measurement": "T/C", "setting": "dose: 25.0 micrograms/kg/injection, schedule: Q01DX009 (ip), vehicle: water, evaluated on day 60", "result": "125 % of control"}]}
